Read-outs that look alike come from different tables or passages of the source.
What was measured:
[1] = Thirty day odor reduction at about 40° C. of Oxonia Active with candidate odor removal agents, tested by nose
[2] = Odor removal from concentrated peracetic acid product (Oxonia Active) with dissolved additive, odor observed; conditions: non-detectable odors listed as none (same odor as water)
[3] = about 50 g Oxonia Active (about 5.5% peracetic acid, 28% hydrogen peroxide) plus additive, thirty days in oven at about 40° C., tested by nose, * pre-neutralized with acetic acid

For `OCCNCCO` [Diethanolamine], the “Odor Reduction” value [1, 3] was “Yes”.

With `N.N.O=S(=O)(O)O` [Ammonium Sulfate] the “Odor Reduction” value [1] was “Yes”.

With Aminomonopropanol the “Odor Reduction” value [1, 3] was “No”.

For `NCCO` [Ethanolamine], the “Odor Reduction” value [1, 3] was “Yes”.

In the case of `O=S(=O)([O-])[O-].[Na+].[Na+]` [Sodium Sulfate], the “Odor Reduction” value [1] is reported as “No”.

In the case of `CC(=O)O.CC(=O)O.NCCN` [Ethylene Diamine Diacetate], the “Odor Reduction” value [1, 3] is reported as “No”.

For `CC(=O)O.N` [Ammonium Acetate], the “Odor Reduction” value [1] was “Yes”.

With `NC(N)=O` [Urea] the Odor ([2]; molar POAA/additive 0.5/1) was “None”, the Odor ([2]; molar POAA/additive 1/0.25) was “None” and the Odor ([2]; molar POAA/additive 1/0.50) was “None”. For the same molecule, the Odor ([2]; molar POAA/additive 1/1) was “None” and the “Odor Reduction” value [1, 3] was “Yes”.

For `CC(=O)[O-].O.O.O.[Na+]` [Sodium Acetate (Trihydrate)], the “Odor Reduction” value [1] was “No”.

— US20140121272A1, “DEODORIZATION OF PEROXYCARBOXYLIC ACIDS USING CHAOTROPIC AGENTS” (ECOLAB USA INC., priority 2012, published 2014)
